PubChem BioAssay AID1508597 – Cure First | 2020
Purpose: 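Survival screen with siRNA in ovarian cancer cells derived from patients, with or without rucaparib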 (primary screen). System: human ovarian carcinoma lines grown from tumours: OCI-P5x (papillary serous) and OCI-C5x (clear cell). Reagents: siRNA pool against human genes, 1.25 pmol siRNA per well. Duration: 72 h or 96 h, depending on the cell culture. Conditions: rucaparib 20 µM (about IC30) or vehicle, present until read-out. Rucaparib or vehicle: Vehicle. Cell line: OCI-C5x (clear cell). Read-out: 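Luminescent ATP-based viability assay read 72 or 96 h after transfection, depending on culture, given as normalised percent viability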. Reading the numbers: viability, normalised: higher = more viable cells remaining. Active means: 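Active when normalised viability falls below 80 percent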. Calls: active = viability under 80%; inactive = viability 80% or more.
Shown is a random part of the about 2,100 reagents, in one setting of the screen. 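Calls flag viability under 80% in either arm, not effects specific to rucaparib; the reference for percent is not stated.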 A number with no mark means an inactive call. Some reagents were tested in more than one well and are listed for each. The record does not give: the 100% reference.

| gene symbol | technical replicate | viability, normalised (%) |
| --- | --- | --- |
| PHF21A (PHD finger protein 21A) | 1 | 41.8 (active) |
| PHF21A (PHD finger protein 21A) | 2 | 33.7 (active) |
| PHF21A (PHD finger protein 21A) | 3 | 43.9 (active) |
| RABGGTA (Rab geranylgeranyltransferase subunit alpha) | 1 | 25.7 (active) |
| RABGGTA (Rab geranylgeranyltransferase subunit alpha) | 2 | 34.9 (active) |
| RABGGTA (Rab geranylgeranyltransferase subunit alpha) | 3 | 26.6 (active) |
| GAD1 (glutamate decarboxylase 1) | 1 | 30.1 (active) |
| GAD1 (glutamate decarboxylase 1) | 2 | 46.9 (active) |
| GAD1 (glutamate decarboxylase 1) | 3 | 42.6 (active) |
| PALS2 (protein associated with LIN7 2, MAGUK p55 family member) | 1 | 56.2 (active) |
| PALS2 (protein associated with LIN7 2, MAGUK p55 family member) | 2 | 41.1 (active) |
| PALS2 (protein associated with LIN7 2, MAGUK p55 family member) | 3 | 46.9 (active) |
| ENPP4 (ectonucleotide pyrophosphatase/phosphodiesterase 4) | 1 | 38.6 (active) |
| ENPP4 (ectonucleotide pyrophosphatase/phosphodiesterase 4) | 2 | 39.7 (active) |
| ENPP4 (ectonucleotide pyrophosphatase/phosphodiesterase 4) | 3 | 39.6 (active) |
| CAMK2D (calcium/calmodulin dependent protein kinase II delta) | 1 | 61.7 (active) |
| CAMK2D (calcium/calmodulin dependent protein kinase II delta) | 1 | 78.6 (active) |
| CAMK2D (calcium/calmodulin dependent protein kinase II delta) | 2 | 51.7 (active) |
| CAMK2D (calcium/calmodulin dependent protein kinase II delta) | 2 | 59.9 (active) |
| CAMK2D (calcium/calmodulin dependent protein kinase II delta) | 3 | 46.8 (active) |
| CAMK2D (calcium/calmodulin dependent protein kinase II delta) | 3 | 64.1 (active) |
| SATB1 (SATB homeobox 1) | 1 | 54.4 (active) |
| SATB1 (SATB homeobox 1) | 2 | 55.8 (active) |
| SATB1 (SATB homeobox 1) | 3 | 43.5 (active) |

2 neighbouring reagents from above, quoted:
| gene symbol | technical replicate | viability, normalised (%) |
| --- | --- | --- |
| GAD1 (glutamate decarboxylase 1) | 3 | 42.6 (active) |
| PALS2 (protein associated with LIN7 2, MAGUK p55 family member) | 1 | 56.2 (active) |
